This is one part of the list. Further columns of the screen follow, without active or inactive calls. The list favours compounds with an active or inconclusive main result. Potencies come from curve fits of mixed quality, noted in brackets.
Test: qHTS Assay for Modulators of Lamin A Splicing
Conditions: HeLa LMNA splicing GFP/RFP minigene ratio, 48 h
Summary of the method: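 S3 HeLa stable clones carrying a lamin A-EGFP splicing minigene plus DsRed2 were seeded at 600 cells/well in Opti-MEM with 2% FBS, pin-dosed and incubated 48 h at 37°C. Acumen cytometry (488 nm) gave the GFP/RFP total-intensity ratio.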

[1] = measured here: RFP viability control channel
[2] = measured here: GFP splicing reporter channel

| Compound | AC50 [1] | AC50 [2] |
| --- | --- | --- |
| Cc1ccc2nc(NC(=O)CN(C)S(=O)(=O)c3cccc4nsnc34)sc2c1 | 2.82 µM [rising, single point] |  |
| Cc1cc(C)cc(N=C2NC(=O)/C(=C/c3cccs3)S2)c1 | 35.5 µM [rising, single point] | 25.1 µM [rising, single point] |
| O=[N+]([O-])c1cccc(C2=NCCS2)c1 | 0.00447 µM [falling, full curve, poor fit] | 0.00501 µM [falling, full curve, poor fit] |
| Cc1cc(Nc2ccccc2)c2c([N+](=O)[O-])c(C)cc(C)c2n1 | 35.5 µM [rising, single point] |  |
| Cc1ccc(/C=C/C(=O)N2CCN(S(=O)(=O)c3ccc(C)c(C)c3)CC2)o1 | 28.2 µM [rising, single point] |  |
| Cc1ccc(SCc2noc(C(=O)NC(C)C)c2C(=O)O)cc1C |  | 8.91 µM [falling, single point] |
| Cc1cc(=O)oc2c3c4c(cc12)OCCN4CCC3 | 14.1 µM [rising, partial curve, poor fit] |  |
| COc1ccc(NC(=O)CC2C(=O)N(c3ccc(F)cc3)C(=S)N2NC(=O)c2ccc(Cl)cc2)cc1 (centres undefined) | 22.4 µM [rising, single point] | 17.8 µM [rising, partial curve] |
| Cc1ccc(S(=O)(=O)Nc2ccc3c(c2)OCCO3)cc1 | 0.158 µM [rising, full curve, poor fit] |  |
| CC(=O)c1c(C)[nH]c(C(=O)OCC(=O)Nc2sc3c(c2C#N)CCCC3)c1C | 2.82 µM [rising, full curve] | 0.891 µM [rising, full curve, poor fit] |
| CCOC(=O)C(C(=O)OCC)C(Nc1ccccc1)c1ccccc1 (centres undefined) | 10 µM [rising, partial curve, poor fit] |  |
| COc1cc(C(=O)N2CCc3c([nH]c4ccccc34)C2c2ccc(C)cc2)cc(OC)c1OC (centres undefined) | 3.98 µM [falling, full curve, poor fit] | 5.01 µM [falling, full curve, poor fit] |
| Cc1ccc(C)c(C(=O)COC(=O)c2cccc(N3C(=O)c4c(C)nc5ccccc5c4C3=O)c2)c1 | 0.0562 µM [rising, full curve, poor fit] |  |
| Cn1c(/C=C/c2ccc([N+](=O)[O-])o2)nc2ccccc2c1=O | 5.62 µM [falling, single point] | 5.62 µM [falling, single point] |
| COc1ccc(CNCCC(c2ccccc2)c2ccc3c(c2)OCO3)cc1 (centres undefined) | 35.5 µM [falling, single point] | 35.5 µM [falling, single point] |
| O=C(/C=C/c1ccccc1Cl)c1ccc[nH]1 | 14.1 µM [rising, single point] |  |
| COc1ccccc1NC1=C(C)C(=O)CC1 | 35.5 µM [rising, single point] |  |
| COc1cccc(OC)c1C(=O)NCCSC1CCCCC1 |  | 1.26 µM [rising, full curve] |

Structural class, the compounds so far containing a thiophene ring, fused or not (2)

| Compound | AC50 [1] | AC50 [2] |
| --- | --- | --- |
| Cc1cc(C)cc(N=C2NC(=O)/C(=C/c3cccs3)S2)c1 | 35.5 µM [rising, single point] | 25.1 µM [rising, single point] |
| CC(=O)c1c(C)[nH]c(C(=O)OCC(=O)Nc2sc3c(c2C#N)CCCC3)c1C | 2.82 µM [rising, full curve] | 0.891 µM [rising, full curve, poor fit] |

Remaining list, next part:

| Compound | AC50 [1] | AC50 [2] |
| --- | --- | --- |
| CC(C(=O)NN=C(c1ccccc1)c1ccccc1)N1CCCC1 (centres undefined) |  | 0.316 µM [falling, partial curve, poor fit] |
| CC(C)Oc1ccc(CNC(=O)CC(c2ccccc2)c2cc(Cl)ccc2O)cc1 (centres undefined) | 28.2 µM [falling, single point] | 25.1 µM [falling, single point] |
| CCCCN(CC)C(=O)c1cc2cc3ccc(OC)cc3nc2o1 | 31.6 µM [rising, single point] | 35.5 µM [rising, single point] |
| CC(Sc1nnnn1C)C(=O)Nc1ccc2c(c1)OCCO2 (centres undefined) | 1.12 µM [falling, full curve, poor fit] |  |
| CNc1nc(Nc2ccccc2)nc(OCC(F)(F)F)n1 | 1.26 µM [rising, full curve] | 2.24 µM [rising, partial curve, poor fit] |
| Cn1c2ccccc2c(=O)c2c(=O)n(C3CCCCCC3)c(C3CCCCC3)nc21 | 0.501 µM [rising, single point] |  |
| COc1ccccc1-c1c(C)nn2c(N3CCCCCC3)cc(C)nc12 | 31.6 µM [rising, single point] |  |
| COc1ccc(OCCSc2ncnc3nc[nH]c23)cc1 | 22.4 µM [rising, single point] |  |
| Cc1ccc(C)c(NC(=O)CN(C)C(=O)CCN2C(=O)c3ccccc3C2=O)c1 | 0.501 µM [falling, full curve, poor fit] | 0.631 µM [falling, full curve, poor fit] |
| COc1cc(C2SCC(=O)N2CCN2CCCCC2)ccc1O (centres undefined) |  | 1.41 µM [rising, full curve, poor fit] |
| CC(=O)c1cc(-c2ccccc2)n(CCC(=O)Nc2ccc(C)cc2C)c1C | 1.12 µM [falling, single point] |  |
| COc1ccccc1/C=C(/C(=O)OCC(=O)Nc1ccccc1C)c1ccccc1 | 31.6 µM [rising, single point] |  |
| CCc1ccc(C(=O)Nc2ccc(OC)c(S(=O)(=O)N3CCOCC3)c2)cc1 | 0.1 µM [falling, full curve, poor fit] | 11.2 µM [falling, partial curve] |
| COc1ccccc1CNC(=O)CCC1N=C2c3ccccc3N=C(SCc3ccc(C)cc3)N2C1=O (centres undefined) | 0.355 µM [falling, full curve, poor fit] |  |
| CCC(=O)NC(c1ccc(C)cc1)c1cc([N+](=O)[O-])c2cccnc2c1O (centres undefined) | 6.31 µM [rising, single point] | 3.55 µM [falling, partial curve] |
| COc1ccc(C(=O)/C=C2/c3ccccc3CC(C)(C)N2C)cc1 | 20 µM [falling, partial curve, poor fit] | 20 µM [falling, single point] |
| Cc1ccccc1N=C1NN=C(c2ccccc2F)CS1 | 35.5 µM [rising, single point] |  |
